{"source": "the supplement of paper PMC8728848", "experiment_in_all_cases": "glycan array binding signal (z-score within array); higher = stronger binding", "conditions_in_all_cases": "glycan notation: IUPAC condensed, linker removed", "key": {"[1]": {"molecular_target": "Fuc(a1-2)Gal(b1-4)GlcNAc(b1-3)Gal(b1-4)GlcNAc(b1-3)Gal(b1-4)GlcNAc", "how_it_was_run": "(§1)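 The Consortium for Functional Glycomics database supplied 3228 glycan arrays, of which those lacking an available protein sequence were dropped. The binding signal, a within-array Z-score, was averaged across arrays of the same protein sequence and across linkers. Negative scores can be read as non-binding.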"}, "[2]": {"molecular_target": "Fuc(a1-2)Gal(b1-4)GlcNAc(b1-3)GalNAc", "how_it_was_run": "as §1"}, "[3]": {"molecular_target": "Fuc(a1-2)Gal(b1-4)GlcNAc(b1-3)[Fuc(a1-2)Gal(b1-4)GlcNAc(b1-6)]GalNAc", "how_it_was_run": "as §1"}, "[4]": {"molecular_target": "Fuc(a1-2)Gal(b1-4)GlcNAc(b1-3)[Fuc(a1-3)[Gal(b1-4)]GlcNAc(b1-6)]Gal(b1-4)Glc", "how_it_was_run": "as §1"}, "[5]": {"molecular_target": "Fuc(a1-2)Gal(b1-4)GlcNAc(b1-6)GalNAc", "how_it_was_run": "as §1"}, "[6]": {"molecular_target": "Fuc(a1-2)Gal(b1-4)GlcNAc6S", "how_it_was_run": "as §1"}, "[7]": {"molecular_target": "Fuc(a1-2)Gal(b1-4)[Fuc(a1-3)]GlcNAc", "how_it_was_run": "as §1"}, "[8]": {"molecular_target": "Fuc(a1-2)Gal(b1-4)[Fuc(a1-3)]GlcNAc(b1-2)Man(a1-3)[Fuc(a1-2)Gal(b1-4)[Fuc(a1-3)]GlcNAc(b1-2)Man(a1-6)]Man(b1-4)GlcNAc(b1-4)[Fuc(a1-6)]GlcNAc", "how_it_was_run": "as §1"}, "[9]": {"molecular_target": "Fuc(a1-2)Gal(b1-4)[Fuc(a1-3)]GlcNAc(b1-2)[Fuc(a1-2)Gal(b1-4)[Fuc(a1-3)]GlcNAc(b1-4)]Man(a1-3)[Fuc(a1-2)Gal(b1-4)[Fuc(a1-3)]GlcNAc(b1-2)Man(a1-6)]Man(b1-4)GlcNAc(b1-4)GlcNAc", "how_it_was_run": "as §1"}, "[10]": {"molecular_target": "Fuc(a1-2)Gal(b1-4)[Fuc(a1-3)]GlcNAc(b1-3)Gal(b1-4)[Fuc(a1-3)]GlcNAc", "how_it_was_run": "as §1"}, "[11]": {"molecular_target": "Fuc(a1-2)Gal(b1-4)[Fuc(a1-3)]GlcNAc(b1-3)Gal(b1-4)[Fuc(a1-3)]GlcNAc(b1-3)Gal(b1-4)[Fuc(a1-3)]GlcNAc", "how_it_was_run": "as §1"}, "[12]": {"molecular_target": "Fuc(a1-2)Gal(b1-4)[Fuc(a1-3)]GlcNAc(b1-3)GalNAc", "how_it_was_run": "as §1"}, "[13]": {"molecular_target": "Fuc(a1-2)Gal(b1-4)[Fuc(a1-3)]GlcNAc(b1-3)[Neu5Ac(a2-6)Gal(b1-4)GlcNAc(b1-6)]Gal(b1-4)Glc", "how_it_was_run": "as §1"}, "[14]": {"molecular_target": "Fuc(a1-2)Gal3S(b1-4)GlcNAc", "how_it_was_run": "as §1"}, "[15]": {"molecular_target": "Fuc(a1-2)Gal6S(b1-3)GlcNAc", "how_it_was_run": "as §1"}, "[16]": {"molecular_target": "Fuc(a1-2)Gal6S(b1-3)GlcNAc6S", "how_it_was_run": "as §1"}, "[17]": {"molecular_target": "Fuc(a1-2)Gal6S(b1-4)Glc", "how_it_was_run": "as §1"}, "[18]": {"molecular_target": "Fuc(a1-2)Gal6S(b1-4)Glc6S", "how_it_was_run": "as §1"}, "[19]": {"molecular_target": "Fuc(a1-2)[Gal(a1-3)]Gal", "how_it_was_run": "as §1"}, "[20]": {"molecular_target": "Fuc(a1-2)[Gal(a1-3)]Gal(b1-3)GalNAc", "how_it_was_run": "as §1"}, "[21]": {"molecular_target": "Fuc(a1-2)[Gal(a1-3)]Gal(b1-3)GalNAc(b1-3)Gal(a1-4)Gal(b1-4)Glc", "how_it_was_run": "as §1"}, "[22]": {"molecular_target": "Fuc(a1-2)[Gal(a1-3)]Gal(b1-3)GlcNAc", "how_it_was_run": "as §1"}, "[23]": {"molecular_target": "Fuc(a1-2)[Gal(a1-3)]Gal(b1-3)GlcNAc(b1-2)Man(a1-3)[Fuc(a1-2)[Gal(a1-3)]Gal(b1-3)GlcNAc(b1-2)Man(a1-6)]Man(b1-4)GlcNAc(b1-4)GlcNAc", "how_it_was_run": "as §1"}, "[24]": {"molecular_target": "Fuc(a1-2)[Gal(a1-3)]Gal(b1-3)GlcNAc(b1-2)Man(a1-3)[Fuc(a1-2)[Gal(a1-3)]Gal(b1-3)GlcNAc(b1-2)Man(a1-6)]Man(b1-4)GlcNAc(b1-4)[Fuc(a1-6)]GlcNAc", "how_it_was_run": "as §1"}, "[25]": {"molecular_target": "Fuc(a1-2)[Gal(a1-3)]Gal(b1-3)GlcNAc(b1-3)GalNAc", "how_it_was_run": "as §1"}, "[26]": {"molecular_target": "Fuc(a1-2)[Gal(a1-3)]Gal(b1-3)GlcNAc(b1-6)GalNAc", "how_it_was_run": "as §1"}, "[27]": {"molecular_target": "Fuc(a1-2)[Gal(a1-3)]Gal(b1-4)Glc", "how_it_was_run": "as §1"}, "[28]": {"molecular_target": "Fuc(a1-2)[Gal(a1-3)]Gal(b1-4)GlcNAc", "how_it_was_run": "as §1"}, "[29]": {"molecular_target": "Fuc(a1-2)[Gal(a1-3)]Gal(b1-4)GlcNAc(b1-2)Man", "how_it_was_run": "as §1"}, "[30]": {"molecular_target": "Fuc(a1-2)[Gal(a1-3)]Gal(b1-4)GlcNAc(b1-2)Man(a1-3)[Fuc(a1-2)[Gal(a1-3)]Gal(b1-4)GlcNAc(b1-2)Man(a1-6)]Man(b1-4)GlcNAc(b1-4)GlcNAc", "how_it_was_run": "as §1"}}, "note": "Some of the results follow.", "data": [{"binder": "Blon0732mut (Bifidobacterium longum) (protein) MPTSEHKADDATRHLTLIPAPVTLEYTHGTALIGPLVTIEDADQSWETLPIEQLSDELRHRYGVTVLRRRTHGTVISLGLDSRLAHDEYTLDVSESEGIRVRGGGESGLRYGLQTLRQIIGQTSRAIPCLHIQDKPAFAVRAYSLDVTRGRVPTMEFLTWFVDQLALYKYNQFQLYVEHAFAFVELSEAWRGTDPLTAADITYLDEYCARRGIELVPSLATFGHMYMNLRTREHRGLGEFPEDADRPFSFIERMEHHTLNAADPKAHDFASRLIEEYAPLFRSKSFNIGGNETFDLGRGRSAQDAPEAGRDELYAGFVRDLCETLARHGRQPMLWADIALESPRTMDLLPGDITMLNWMYEPQIDESKIQTIATQGRRQFVCPAVRAWSRFFPDYAGAWLNTYHMALAGTKYDAEGMVVTDWGDYGHVNDPRLSVPGLCYGAQNAWNPIEIDAHEMNRRISALVYGDESGRIMDCLARIDSDGVSFPWDLAVQVLELEYGSGTGALNMDVAACMERSSGGKLTLDRTLGCDDARRRMLQWNRERIERRRDCDQVLRDCGDAFAGLDKGGLTAEFLSVMLDGQRLFNELGEELLALADGKDVGSGANRLAADLELWFERYRAQWLSVGRHAELARIAHVVWSLADILRRGAL", "values": [{"measurement": "glycan array binding signal (z-score)", "setting": "[1]", "value": -0.036}, {"measurement": "glycan array binding signal (z-score)", "setting": "[2]", "value": -0.91}, {"measurement": "glycan array binding signal (z-score)", "setting": "[3]", "value": -0.755}, {"measurement": "glycan array binding signal (z-score)", "setting": "[4]", "value": -0.394}, {"measurement": "glycan array binding signal (z-score)", "setting": "[5]", "value": 0.799}, {"measurement": "glycan array binding signal (z-score)", "setting": "[6]", "value": -0.652}, {"measurement": "glycan array binding signal (z-score)", "setting": "[7]", "value": 0.299}, {"measurement": "glycan array binding signal (z-score)", "setting": "[8]", "value": -0.365}, {"measurement": "glycan array binding signal (z-score)", "setting": "[9]", "value": 0.841}, {"measurement": "glycan array binding signal (z-score)", "setting": "[10]", "value": 0.489}, {"measurement": "glycan array binding signal (z-score)", "setting": "[11]", "value": 1.37}, {"measurement": "glycan array binding signal (z-score)", "setting": "[12]", "value": 0.653}, {"measurement": "glycan array binding signal (z-score)", "setting": "[13]", "value": 0.019}, {"measurement": "glycan array binding signal (z-score)", "setting": "[14]", "value": 0.631}, {"measurement": "glycan array binding signal (z-score)", "setting": "[15]", "value": -0.351}, {"measurement": "glycan array binding signal (z-score)", "setting": "[16]", "value": 0.966}, {"measurement": "glycan array binding signal (z-score)", "setting": "[17]", "value": 0.289}, {"measurement": "glycan array binding signal (z-score)", "setting": "[18]", "value": -0.321}, {"measurement": "glycan array binding signal (z-score)", "setting": "[19]", "value": 0.175}, {"measurement": "glycan array binding signal (z-score)", "setting": "[20]", "value": 0.858}, {"measurement": "glycan array binding signal (z-score)", "setting": "[21]", "value": -0.88}, {"measurement": "glycan array binding signal (z-score)", "setting": "[22]", "value": -0.185}, {"measurement": "glycan array binding signal (z-score)", "setting": "[23]", "value": 1.83}, {"measurement": "glycan array binding signal (z-score)", "setting": "[24]", "value": 0.09}, {"measurement": "glycan array binding signal (z-score)", "setting": "[25]", "value": -0.623}, {"measurement": "glycan array binding signal (z-score)", "setting": "[26]", "value": 0.664}, {"measurement": "glycan array binding signal (z-score)", "setting": "[27]", "value": -0.847}, {"measurement": "glycan array binding signal (z-score)", "setting": "[28]", "value": -0.068}, {"measurement": "glycan array binding signal (z-score)", "setting": "[29]", "value": -0.398}, {"measurement": "glycan array binding signal (z-score)", "setting": "[30]", "value": -0.864}]}]}
